# For at least one compound, name, drawing or mass did not settle the structure.
# System: Phospho-AXL (Y702) in Kuramochi cells
# Test: AXL phosphorylation in Kuramochi cells (western blot)
# Assay type: cell-based
# Conditions: 8 hrs; tartrate salt 100 nM; Cabozantinib 1 μM
smiles,measurement,value
COc1cc2nccc(Oc3ccc(NC(=O)C4(C(=O)Nc5ccc(F)cc5)CC4)cc3)c2cc1OC [Cabozantinib],Phospho-AXL (Y702) level,reduced
